Some of the results follow.

The chains behind the UniProt entries cited, without tags or fusion partners.
UniProt Q0JBA9, entry or part of it: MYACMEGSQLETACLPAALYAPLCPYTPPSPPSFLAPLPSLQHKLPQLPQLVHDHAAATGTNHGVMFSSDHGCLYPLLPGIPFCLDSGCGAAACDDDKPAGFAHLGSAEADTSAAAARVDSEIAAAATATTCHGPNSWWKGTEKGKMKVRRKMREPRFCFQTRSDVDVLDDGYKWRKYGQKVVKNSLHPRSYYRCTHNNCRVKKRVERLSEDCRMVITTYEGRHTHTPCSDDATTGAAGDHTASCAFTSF

The target of this assay is OsWRKY34 (Oryza sativa, UniProt Q0JBA9 1-250). Briefly: protein-binding microarray (RPBM); PBS, 2% BSA, 51.3 ng/ul salmon testes DNA, 50 uM zinc acetate, 200 nM TF, 25 C, 1 h; high values mean tight binding. The conditions noted are these: protein: recombinant; tags: N-terminal polyhistidine and DsRed monomer fusion (pET32a); label: CyDye5-dUTP incorporated in the synthesized complementary strand; 3' TTTTT single-stranded linker to array surface; dsDNA, one strand shown. The essentials:
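Binding signal is defined as the fluorescence intensity of each feature in arbitrary units, read on an Axon 4000B scanner. Transcription factors with N-terminal polyhistidine and DsRed fusions came from E. coli BL21-CodonPlus and were purified on Ni–NTA. They were incubated at 200 nM for 1 h at 25 °C on a custom Agilent array that had been made double-stranded with Cy5-dUTP, with 50 µM zinc acetate present, and the array was washed.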
For the sequence “AATTTTCACGCAACTTTCACCGCCTATTTCCTTCTTTTACCGGAGTCACCTAGTGCAG”, the binding signal is 9520 fluorescence intensity (a.u.). Then “TATATTTTGTATTCTTATTGGGTGAATTCCTCCCAACCTACGGAGTCACCTAGTGCAG”, with 8720 fluorescence intensity (a.u.); and “CCTTGCACCTCTCTCACACCCACTTGAGCTTTGTGTTCATCGGAGTCACCTAGTGCAG”, with 11700 fluorescence intensity (a.u.); and “GTTGTACAGTGCCTTACCTTTTTCTTAAGAAAACACTTCACGGAGTCACCTAGTGCAG”, with 10200 fluorescence intensity (a.u.).

On to “GCAGCACCGCTTGCCAGCTCGTAATTGCGGCCCATTAACCCGGAGTCACCTAGTGCAG”, for which the binding signal was 9040 fluorescence intensity (a.u.). As for “GAAATTCGTTGTGAACAGGCTAGGATCATATGTCCTAATTCGGAGTCACCTAGTGCAG”, the figure is 8480 fluorescence intensity (a.u.); as for “TCAGGGGCGGGCCCACTATTGATTCAAGGGTATTCAGACGCGGAGTCACCTAGTGCAG”, 8870 fluorescence intensity (a.u.); as for “CGAGCTCACGAGGCGGGGCAGGCGGCGGCGGGCGGCGGCGCGGAGTCACCTAGTGCAG”, 8260 fluorescence intensity (a.u.). Consider “TGATTGCCTTCTCGATTTTGTTTGTCATTGCGTCTTTGCACGGAGTCACCTAGTGCAG”, for which the binding signal was 8190 fluorescence intensity (a.u.). As for “GCTTGTGATAGAATCAATTTACCCTTGCATTTATGGCTAACGGAGTCACCTAGTGCAG”, the figure is 9970 fluorescence intensity (a.u.); as for “GGCACTACCACTTGTACTAGCTGGAGTAGTACGGACTTACCGGAGTCACCTAGTGCAG”, 8120 fluorescence intensity (a.u.); as for “TTCTCCTCCTCCGTCTCGAGCGAGCTCTCTCCTTCCTTGTCGGAGTCACCTAGTGCAG”, 8380 fluorescence intensity (a.u.). As for “CACACCTGTCACCGTCCCATCCCCACCTCGGCCACAGAGACGGAGTCACCTAGTGCAG”, the figure is 8460 fluorescence intensity (a.u.); as for “CACCATCTCACCATCTCACTACCCACACTGTTCCATGGGGCGGAGTCACCTAGTGCAG”, 8340 fluorescence intensity (a.u.).

Turning to “TCTGAAACTCTCTGCTCTGTCTGTCCGTGCATCTTCTTCCCGGAGTCACCTAGTGCAG”, the binding signal was 16300 fluorescence intensity (a.u.). As for “CGTGGTTACGTGAAATTTACTACTATCTCTGTCTTAAAATCGGAGTCACCTAGTGCAG”, the figure is 9220 fluorescence intensity (a.u.). Then “GTCGTCATCGTCGTCGTTGTCTGCCATTGCCCCGCTCTGCCGGAGTCACCTAGTGCAG”, with 9970 fluorescence intensity (a.u.); and “CACAACCACATTGGTCCCTCGGATTTCCCTCCTCTCTTCTCGGAGTCACCTAGTGCAG”, with 11800 fluorescence intensity (a.u.). As to “GATGACGACGGCGATGACGGCGGGGCGGTTTGGAGCGGGGCGGAGTCACCTAGTGCAG”, the binding signal was 13200 fluorescence intensity (a.u.). Take “AATTCTATGCCTCGATACATTTTTGGTGTTTATTATGGTTCGGAGTCACCTAGTGCAG”: the binding signal is 8460 fluorescence intensity (a.u.).

“CCGCCGGCCGCTTCCACGCCTCCGTCGACCTCGCCAAGTCCGGAGTCACCTAGTGCAG”: the binding signal is 9580 fluorescence intensity (a.u.). Then “TCCGGGTGAAATCTTGATTCTTCTTCCTTAAAATTGTATTCGGAGTCACCTAGTGCAG”, with 8240 fluorescence intensity (a.u.). As for “GGAATAGAGTTTATTTGAGAAGGGTGGGAATGGATTTAAACGGAGTCACCTAGTGCAG”, the figure is 8470 fluorescence intensity (a.u.); as for “TAATTAGTAGGAAACACGAAAATCAAACTAAAAACTAGAACGGAGTCACCTAGTGCAG”, 13400 fluorescence intensity (a.u.).

For “AGACTTGGTCACTGATATGCGAGCCCACTACTTCTAGACCCGGAGTCACCTAGTGCAG”, the binding signal was 9470 fluorescence intensity (a.u.). Regarding “TTTGGATGGAGGGTTTTGGGTTGATAGGACATGGCGGCCTCGGAGTCACCTAGTGCAG”, the binding signal is 11100 fluorescence intensity (a.u.).

On to “ACATAACCCTTGTTGATGGGCGGCATCTTCTCGTTCATTCCGGAGTCACCTAGTGCAG”, for which the binding signal was 11600 fluorescence intensity (a.u.).

In the case of “GGCCCTTATCGGCGCCGTTGACTCCTTTCGGCCAGTCGGCCGGAGTCACCTAGTGCAG”, the binding signal is 10500 fluorescence intensity (a.u.). As for “ATCACCTTCCGCTGGCTCGCCACCCGCCCCATGCGCCGCCCGGAGTCACCTAGTGCAG”, the figure is 11300 fluorescence intensity (a.u.); as for “GTCTATATCTATACTTCATTGTCAACACCGCCGCCACTGCCGGAGTCACCTAGTGCAG”, 8220 fluorescence intensity (a.u.); as for “GGTGCATATTTGATCTCGCTTTCGCAACCGTTCGATTGGTCGGAGTCACCTAGTGCAG”, 8180 fluorescence intensity (a.u.). Then “CCGCCCATGCCATGGCTCCCTGACCTTTCCGCGGCTCAACCGGAGTCACCTAGTGCAG”, with 11900 fluorescence intensity (a.u.); and “CTGTAAATTTCCCGGTGGCTTGTCGCATCTCGTTCATCGTCGGAGTCACCTAGTGCAG”, with 8190 fluorescence intensity (a.u.); and “GGTCCCGTTTCCGTTTTTTCCTTTTTTTTTCTTTTTCTCTCGGAGTCACCTAGTGCAG”, with 14600 fluorescence intensity (a.u.). Take “TTTTTTATGGGTGGAGGGAGTAGTGTAGGAGTATAGTATACGGAGTCACCTAGTGCAG”: the binding signal was 8810 fluorescence intensity (a.u.). Then “AGGAGGCGCTACCTTCTATTCCTCACCGGCTCACCGCTATCGGAGTCACCTAGTGCAG”, with 9700 fluorescence intensity (a.u.); and “TGGTGGAATAGTTCAAACCGAGGGGAGGGGCATTCCGGGACGGAGTCACCTAGTGCAG”, with 9580 fluorescence intensity (a.u.); and “CACGCCATTAAGCTTTTTTTATATACATATAGTCAATGTTCGGAGTCACCTAGTGCAG”, with 9130 fluorescence intensity (a.u.). On to “AGGAACCCCGCGCCGCGCGCACGCCACCCGCGTCCTATCCCGGAGTCACCTAGTGCAG”, for which the binding signal was 11600 fluorescence intensity (a.u.). Consider “GGCCAAAATTTTTCCGAAGTCGTTGTTCTGCTTCTCCATGCGGAGTCACCTAGTGCAG”, for which the binding signal is 8370 fluorescence intensity (a.u.). As for “GTGCAGCTGTATCCCGTCGTTTTTTCTGACGTGGCACGCACGGAGTCACCTAGTGCAG”, the figure is 9140 fluorescence intensity (a.u.); as for “ACTGCTGCTTTTTTTTTTTCATTTTGGCCCAATATTATTACGGAGTCACCTAGTGCAG”, 11000 fluorescence intensity (a.u.).

(Values after paper PMC7819943, “Rice protein-binding microarrays: a tool to detect cis-acting elements near promoter regions in rice”.)
